At least one structure is not confirmed: it was looked up by name or label, or the drawing left a doubt.
System: aromatic aminoacid-decarboxylase
Assay: Blockade of aromatic aminoacid-decarboxylase activity
Format: biochemical
Description: This blockade of the aromatic aminoacid-decarboxylase is irreversible and thus is of special interest since it is maintained as long as the enzyme molecules are in the effective range of the benzophenanthridine alkaloids. Sanguinarine and chelerythrine, representative of the benzophenanthridine alkaloids, have an aromatic structure which is similar to that of the aromatic amino acids. The enzyme “aromatic aminoacid-decarboxylase” confuses the ultimate structure of the benzophenanthridine alkaloid with the ring structure of the aromatic amino acid and fits it rather than the amino acids at its active center.

## C[n+]1cc2c3c(ccc2c2ccc4cc5c(cc4c21)OCO5)OCO3 [sanguinarine]
  block the activity of the aromatic aminoacid-decarboxylase: 99%
  reversibility of blockade of the aromatic aminoacid-decarboxylase: irreversible
